In PubChem BioAssay AID2685 (National Center for Advancing Translational Sciences (NCATS), 2010) one finds cell number change and AC50 data, which are given here for 56 compounds.

This is one part of the list. The main result of the screen is listed elsewhere. These columns were measured beside it and carry no call. Compounds called inactive in the main read-out are mostly missing here. Potencies come from curve fits of mixed quality, noted in brackets.

A short description of the test: qHTS Assay for Lipid Storage Modulators in Drosophila S3 Cells.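 For cell number change: cells counted by Cell Tracker Red CMTPX staining in the red channel.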 The conditions noted are these: BODIPY lipid droplet fluorescence, 18-24 h; for cell number change: measured here: cell count max response, cells fed with added oleic acid. The gist of the method: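 Drosophila S3 cells got compounds at several concentrations plus oleic acid (400 uM solution). Laser-scanning cytometry with 488 nm excitation read lipid droplets at 500-530 nm and cells at 575-640 nm. Percent activity was relative to 20 uM Triacsin C.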
On the technique in general: In qHTS, concentration-response curves come from the screen itself.

The mark [1] stands for this setting: measured here: lipid fluorescence (Fed channel) AC50, cells fed with added oleic acid.
[2] abbreviates: measured here: cell number channel AC50, cells fed with added oleic acid.

`COc1ccc(-c2nc3c(c(SCC(=O)N4CCOCC4)n2)Cc2c(CO)cnc(C)c2O3)cc1`: the cell number change is -13.2%. For the same compound, the AC50 – broadly, the concentration at which the activity in the assay is half-maximal – under setting [1] was 0.651 µM [falling, single point].

Turning to `CC(=O)c1cccc(NC(=S)Nc2cccc3ccccc23)c1`, the cell number change was -37.1%. For the same compound, under setting [2], the AC50 was 29.1 µM [falling, single point]. Also, under setting [1], the AC50 was 29.1 µM [rising, single point].

`CC1CCc2c(sc(NC(=O)CSc3nc(N)cc(=O)[nH]3)c2C(N)=O)C1` (stereo unspecified): the cell number change was 165%. Besides, the AC50 under setting [2] is 16.4 µM [rising, partial curve].

`CN(C)c1nc(N)nc(CSc2nnnn2-c2cccc3ccccc23)n1`: the cell number change is -6.36%. Also, under setting [1], the AC50 is 3.26 µM [rising, partial curve].

`COc1ccc(C(=O)NCc2nnc(SCC(=O)Nc3nc4ccccc4s3)o2)cc1`: the cell number change was -2.12%. In addition, the AC50 under setting [1] is 0.651 µM [falling, partial curve, poor fit].

On to `CC1CN(C(=O)c2cccc(S(=O)(=O)N3CCN(c4ccc(F)cc4)CC3)c2)CC(C)O1` (stereo unspecified), for which the cell number change is -18.2%. Further, the half-maximal activity concentration (AC50) under setting [1] was 16.4 µM [falling, partial curve].

On to `COc1cc(Br)c(C2C(C#N)=C(N)Oc3n[nH]c(-c4cccnc4)c32)cc1OC` (stereo unspecified), for which the AC50 under setting [1] is 23.1 µM [rising, partial curve].

Take `O=C(CSC1=NCCS1)NC1CCCCC1`: the cell number change was -63.1%. Besides, the AC50 under setting [2] is 1.84 µM [falling, partial curve, poor fit]. In addition, under setting [1], the AC50 is 6.51 µM [falling, full curve].

In the case of `NC(=O)c1cccc(C(N)=O)n1`, the cell number change was -12.3%. The AC50 under setting [1] is 0.00461 µM [falling, full curve, poor fit].

For the compound `CC(C)(O)CC[C@@H](O)[C@](C)(O)C1CC[C@@]2(O)C3=CC(=O)[C@]4(O)C[C@@H](O)[C@@H](O)C[C@]4(C)C3CC[C@]12C` (stereo partly specified), the cell number change was -29.7%. Moreover, under setting [2], the AC50 is 0.082 µM [falling, full curve, poor fit].

For `COc1cc(OC)cc(C(=O)NC(C)CCc2ccccc2)c1` (stereo unspecified), the cell number change is -18.9%. In addition, the AC50 under setting [1] was 3.66 µM [falling, single point].

Take `COc1c2occc2c(OC)c2c(=O)cc(C)oc12`: the cell number change is -0.233%. Besides, the half-maximal activity concentration (AC50) under setting [1] is 0.366 µM [rising, full curve].

As for `Cc1ccc(NC(=O)C2CC(=O)N(c3ccc4c(c3)OCCO4)C2)cc1S(=O)(=O)N1CCCCCC1` (stereo unspecified), the cell number change is -50%. Further, under setting [2], the AC50 is 8.2 µM [falling, partial curve, poor fit].

For the compound `COCCCN1C(=O)C(=O)/C(=C(/O)c2ccc(S(=O)(=O)N3CCOCC3)cc2)C1c1cccc(Cl)c1` (stereo unspecified), the AC50 under setting [1] is 29.1 µM [rising, single point].

As to `CN(C)c1ccc(P(=O)(CC(=O)N/N=C/c2ccc(C#N)cc2)OCCCl)cc1` (stereo unspecified), the AC50 runs as follows: under setting [2], 0.92 µM [rising, single point]; under setting [1], 0.58 µM [rising, single point].

Consider `Cc1[nH]c(=S)c(C#N)c(C)c1CC(=O)c1ccc(Br)cc1`, for which the cell number change was determined as 1.38%.

In the case of `Cc1ccc(C(=O)Nc2ncc(C)s2)o1`, the cell number change stood at 61.3%. Further, the AC50 under setting [2] is 14.6 µM [rising, single point].

For the compound `CCC(C)c1c(O)nc(SCC(=O)N2CCCCCC2)[nH]c1=O` (stereo unspecified), the cell number change was -7.89%. The concentration at half-maximal activity (AC50) under setting [1] was 0.794 µM [rising, partial curve, poor fit].

Regarding `O=C(CSc1nnc(-c2ccncc2)o1)Oc1ccccc1`, the cell number change was -30.5%. In addition, under setting [2], the AC50 was 2.91 µM [falling, full curve, poor fit]. In addition, the concentration at half-maximal activity (AC50) under setting [1] is 0.651 µM [falling, full curve].

For `CCOC(=O)/C=c1\s/c(=C\c2ccccc2C)c(=O)n1CC(=O)NCc1ccc2c(c1)OCO2`, the cell number change came to 6.48%. Moreover, the AC50 under setting [2] was 4.11 µM [rising, single point]. Besides, under setting [1], the AC50 was 0.082 µM [rising, full curve, poor fit].

Regarding `Cc1cccc(OCc2nnc(SCCC(=O)O)n2-c2ccccc2)c1`, the cell number change is 23.4%. The AC50 under setting [1] is 29.1 µM [rising, single point].

Turning to `CC(C)CCCN1C(Nc2ccccc2)=NC[C@@H]1Cc1ccccc1`, the cell number change came to 5.09%. Under setting [1], the AC50 was 29.1 µM [falling, single point].

Turning to `COc1cc2c(cc1OC)C(c1cc(Br)ccc1F)N(C(=O)CCl)CC2` (stereo unspecified), the cell number change is -25%. Moreover, under setting [1], the AC50 was 29.1 µM [rising, partial curve].

`CCN(CC(=O)c1c(N)n(C)c(=O)n(C)c1=O)c1cccc2ccccc12`: the cell number change was -0.244%. Also, the concentration at half-maximal activity (AC50) under setting [1] is 29.1 µM [rising, single point].

In the case of `Cc1nc(N2CCOCC2)nc2c1CCC2`, the cell number change was -12%. Under setting [1], the concentration at half-maximal activity (AC50) was 0.103 µM [falling, full curve, poor fit].

`O=C(NCC(=O)N1CCN(c2ccccc2O)CC1)c1ccc2c(c1)OCO2`: the cell number change was -18.5%. The concentration at half-maximal activity (AC50) under setting [1] was 16.4 µM [rising, single point].

Regarding `COc1ccc(CCn2ccc(O)c(Cc3ccc(Cl)cc3Cl)c2=O)cc1OC`, the cell number change is -54.6%. Also, the concentration at half-maximal activity (AC50) under setting [2] is 0.517 µM [falling, full curve]. Moreover, the AC50 under setting [1] was 0.184 µM [falling, full curve].

Regarding `Cc1ccc(-c2n[nH]c(=S)n2-c2ccccc2)cc1`, the cell number change was 29.4%. For the same compound, the AC50 under setting [1] is 14.6 µM [rising, single point].

As to `Cc1ccc(N2CC(C(=O)Nc3ccc4c(c3)OCCO4)CC2=O)cc1` (stereo unspecified), the cell number change was found to be 10.9%. Under setting [1], the AC50 is 32.6 µM [rising, single point].

In the case of `CN(c1ccc(OCC(=O)N2CCOCC2)cc1)S(=O)(=O)c1ccc(Cl)cc1`, the AC50 under setting [1] was 29.1 µM [rising, single point].

Consider `OCCN1CCN(Cc2cccc(Oc3ccc(Cl)cc3)c2)CC1`, for which the cell number change was -8.73%. The AC50 under setting [2] was 7.31 µM [falling, single point]. Besides, the AC50 under setting [1] was 6.51 µM [falling, partial curve].

With `Cc1cc(C)c(C#N)c(Nc2ccccc2C)n1`, the cell number change was 17.3%. Also, the half-maximal activity concentration (AC50) under setting [1] is 23.1 µM [rising, single point].

With `Cc1nn(-c2ccccc2)c(C)c1NC(=O)COC(=O)c1ccc(S(=O)(=O)C(F)F)cc1`, the concentration at half-maximal activity (AC50) under setting [2] was 4.11 µM [falling, single point] and the concentration at half-maximal activity (AC50) under setting [1] is 16.4 µM [falling, partial curve, poor fit].

Consider `CC/C(=N\NC(=O)c1ccc(CN(C)S(=O)(=O)c2ccc(C)cc2)cc1)c1ccc(OC(F)F)cc1`, for which the cell number change was -72.9%. Further, the AC50 under setting [2] was 18.4 µM [falling, partial curve]. Besides, the AC50 under setting [1] is 7.31 µM [falling, partial curve].

Consider `COC(=O)c1sccc1NC(=O)Nc1cccc(OC)c1`, for which the cell number change is -4.62%. The concentration at half-maximal activity (AC50) under setting [1] is 6.51 µM [rising, partial curve, poor fit].

Regarding `Cc1cccc(NC(=O)c2ccc(C)c(S(=O)(=O)N3CCCCC3)c2)n1`, the cell number change stood at 27.1%. The AC50 under setting [1] is 6.51 µM [rising, single point].

As for `COc1cccc(-c2cccc(NC(=O)C3CCN(C4CCOCC4)CC3)c2)c1`, the cell number change was 25.9%. Under setting [1], the concentration at half-maximal activity (AC50) was 29.1 µM [rising, single point].

Take `Cc1cccc(Cn2cc(SCC(=O)Nc3nccs3)c3ccccc32)c1`: the concentration at half-maximal activity (AC50) under setting [1] is 6.51 µM [rising, single point].

Consider `CCCOc1ccc(NC(=O)C2CC(=O)N/C(=N/N=C(\C)CCc3ccc4c(c3)OCO4)S2)cc1` (stereo unspecified), for which, under setting [1], the AC50 was 0.103 µM [rising, partial curve].

Take `CN(C)c1ccc(CNC(=O)c2ccc(CNc3c(N4CCCCC4)c(=O)c3=O)cc2)cc1`: the cell number change was -42.2%. Besides, the AC50 under setting [2] was 0.731 µM [falling, full curve]. Also, under setting [1], the AC50 was 0.731 µM [falling, full curve].

On to `CCCn1c(N)c(C(=O)CN(C)CC(=O)Nc2ccc(C)cc2)c(=O)[nH]c1=O`, for which the cell number change was 11.2%.

Regarding `CCOC(=O)c1c(NC(=O)c2cc3n(n2)C(C(F)(F)F)CC(c2cccs2)N3)sc(C)c1C` (stereo unspecified), the cell number change was -1.59%. Moreover, the AC50 under setting [1] was 0.184 µM [rising, full curve, poor fit].

`CC(C)c1nc2ccc(C(=O)O)cc2[nH]1`: the AC50 under setting [1] is 6.51 µM [falling, single point].

Regarding `O=C(Nc1ccc2c(c1)CCC2)C1CCN(c2ncccn2)CC1`, the AC50 under setting [2] is 0.92 µM [rising, partial curve, poor fit].

On to `CN(C)CCn1c2c(c(SCC(=O)Nc3cccc(C(F)(F)F)c3)nc1=O)CCCC2`, for which the cell number change is -25%. The AC50 under setting [2] was 4.11 µM [falling, full curve, poor fit].

As for `O=S(=O)(N/N=C/c1ccccc1OCc1ccc(Cl)cc1)c1ccccc1`, the cell number change worked out at 10.5%. The AC50 under setting [1] is 0.58 µM [rising, single point].

With `Cn1cc(Br)c(NC(=O)/C=C/C(=O)O)n1`, the cell number change was -67.5%. Moreover, under setting [2], the concentration at half-maximal activity (AC50) is 18.4 µM [falling, partial curve]. For the same compound, under setting [1], the AC50 is 18.4 µM [falling, partial curve].

`COc1ccc(CCNC(=O)CSc2nnc(CNC(=O)c3cccs3)o2)cc1OC`: the cell number change was 36.7%. Further, the half-maximal activity concentration (AC50) under setting [2] was 18.4 µM [rising, single point].

For `CC1CCCCC12NC(=O)N(CC(=O)OCc1ccc(Br)cc1)C2=O` (stereo unspecified), the cell number change was 0.519%. Besides, under setting [1], the AC50 is 8.2 µM [rising, partial curve].

As to `Cn1nc(-c2ccc(C(=O)NCC3CCCO3)cc2)c2ccccc2c1=O` (stereo unspecified), the cell number change is -11.8%.

As to `COc1ccc(OC)c(NC(=O)Cn2cc(C#N)c3cc(Br)ccc32)c1`, the cell number change is -49.1%. For the same compound, the AC50 under setting [2] is 23.1 µM [falling, single point].

`O=C(c1cn(-c2ccccc2)nc1-c1cccs1)N1CCN(c2ccccc2)CC1`: the cell number change was -15.9%. Further, under setting [2], the AC50 is 0.0731 µM [falling, full curve, poor fit].

As for `O=C(NCc1ccco1)/C(=C/c1ccccc1F)NC(=O)c1ccccc1`, the cell number change is -2.69%. In addition, the AC50 under setting [1] is 32.6 µM [falling, single point].

Take `COc1cc(C(=O)N(CCCO)Cc2cc3ccc(C)c(C)c3[nH]c2=O)cc(OC)c1OC`: the cell number change amounted to 7.6%. Further, the AC50 under setting [2] was 6.51 µM [rising, single point]. The AC50 under setting [1] is 29.1 µM [rising, single point].

As to `CC(C)c1ccc(S(=O)(=O)Nc2ccc(N3CCOCC3)cc2)cc1`, the cell number change turned out to be 4.7%.

For the compound `Cc1ccc(-n2nnnc2CNC(=O)C2CC(=O)N(c3ccccc3)C2)cc1C` (stereo unspecified), the cell number change worked out at 6.57%. Besides, under setting [1], the concentration at half-maximal activity (AC50) is 6.51 µM [falling, single point].
